Laboratory results as given in doi:10.1101/2022.05.14.22275020.
No constants are given. Whether binding was seen depends on the method and setting.

Molecular target: FICD^L258D-H363A, monomeric mutant (human) (UniProt Q9BVA6)
Assay: SEC

B1: FICD^L258D-H363A, monomeric mutant (enzyme, UniProt Q9BVA6 104-445)
chain: LEARAALNQALEMKRQGKREKAQKLFMHALKMDPDFVDALTEFGIFSEEDKDIIQADYLYTRALTISPYHEKALVNRDRTLPLVEEIDQRYFSIIDSKVKKVMSIPKGNSALRRVMEETYYHHIYHTVAIEGNTLTLSEIRHILETRYAVPGKSDEEQNEVIGMHAAMKYINTTLVSRIGSVTISDVLEIHRRVLGYVDPVEAGRFRTTQVLVGHHIPPHPQDVEKQMQEFVQWLNSEEAMNLHPVEFAALAHYKLVYIAPFIDGNGRTSRLLMNLILMQAGYPPITIRKEQRSDYYHVLEAANEGDVRPFIRFIAKCTETTLDTLLFATTEYSVALPEAQP
Which binding does the source give for B1 here?
The binding was “no binding”.
